According to PubChem BioAssay AID256 (DTP/NCI, 2004):
The list is a part of this screen's results and no random one: it covers a few groups of compounds. Not every dose and run of a compound is shown. T/C gives the treated animals as a percentage of the vehicle group. Where survival is the endpoint, this PubChem deposit counts one and a half times the control or more as active, and values a quarter to a half above the control carry no call in these data; other NCI protocols may use other cut-offs. Some T/C values are marked as having no survivor count here; that says nothing about deaths at the dose. Some metal complexes and salts are drawn in pieces, as in the source, so charges may not balance. Schedules are NCI's codes, read here as Q, the interval in days (D) or hours (H), X, the number of doses. Some entries hold several experiments; the values are given in rising order.

Test system: CD2F1 mice, L1210 leukemia ip, survival T/C
Assay: NCI In Vivo Anticancer Drug Screen. Data for tumor model L1210 Leukemia (intraperitoneal) in CD2F1 (CDF1) mice
Conditions: T/C endpoint: mean survival time, higher T/C = longer survival
Experimental: The antitumor activity of compounds was measured in mice bearing transplantable tumors. Survival or tumor size were measured and the results are expressed as the measurement made in the treated group (T) divided by the measurement made in the vehicle treated control group (C). The tumor model used in this assay is L1210 Leukemia (intraperitoneal) in CD2F1 (CDF1) mice

[1] = dose: 6.25 mg/kg/injection, schedule: Q04DX003 (ip), vehicle: water
[2] = dose: 12.5 mg/kg/injection, schedule: Q04DX003 (ip), vehicle: water
[3] = dose: 25.0 mg/kg/injection, schedule: Q04DX003 (ip), vehicle: water
[4] = dose: 50.0 mg/kg/injection, schedule: Q04DX003 (ip), vehicle: water

SMILES	T/C (dose: 3.13 mg/kg/injection, schedule: Q01DX009 (ip), vehicle: water)	T/C (dose: 6.25 mg/kg/injection, schedule: Q01DX009 (ip), vehicle: water)	T/C [1]	T/C (dose: 12.5 mg/kg/injection, schedule: Q01DX009 (ip), vehicle: water)	T/C [2]	T/C (dose: 25.0 mg/kg/injection, schedule: Q01DX009 (ip), vehicle: water)	T/C [3]	T/C [4]	T/C (dose: 3.13 mg/kg/injection, schedule: Q01DX009 (ip), vehicle: saline)	T/C (dose: 6.25 mg/kg/injection, schedule: Q01DX009 (ip), vehicle: saline)	T/C (dose: 12.5 mg/kg/injection, schedule: Q01DX009 (ip), vehicle: saline)	T/C (dose: 22.0 mg/kg/injection, schedule: Q04DX003 (ip), vehicle: water)	T/C (dose: 25.0 mg/kg/injection, schedule: Q01DX009 (ip), vehicle: saline)	T/C (dose: 33.0 mg/kg/injection, schedule: Q04DX003 (ip), vehicle: water)
CN(CCCl)CCCl.CN(CCCl)CCCl.[Cl][Pt+2][Cl]	117 % of control [survivor count not shown]	124 % of control [survivor count not shown]	106 % of control [survivor count not shown]	130 % of control [survivor count not shown]	106 % of control [survivor count not shown]	130 % of control [survivor count not shown]	128 % of control [survivor count not shown]	128 [survivor count not shown] and 139 % of control [survivor count not shown]						
CN(CCCl)CCCl.O.O.O.[Cl][Ni+][Cl]			95 % of control [survivor count not shown]		97 % of control [survivor count not shown]		109 % of control [survivor count not shown]	120 [survivor count not shown], 127 [survivor count not shown], 138 % of control [survivor count not shown]	91 % of control [survivor count not shown]	96 % of control [survivor count not shown]	104 % of control [survivor count not shown]	111 % of control [survivor count not shown]	112 % of control [survivor count not shown]	120 % of control [survivor count not shown]
